PubChem BioAssay AID1259254 – NCATS – 2017
Purpose: 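Finding genes that stop cells copying their DNA twice in one cycle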 (primary screen). Cells: human HCT116 colorectal cancer cells. Knock-down reagent: single siRNA against human genes. Timing: 3 days. Detection: 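Nuclei stained with Hoechst and imaged; cell-cycle phase assigned by DNA content; G2 share scaled per plate, non-targeting siRNA 0%, GMNN siRNA 100%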. Scale: G2 robust z-score and G2 cells, % of GMNN control: higher = more G2 cells, more excess DNA replication. Hit rule: 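Active siRNAs have a G2 robust z of 5 or more median absolute deviations over the median, which in these data means about 38% or higher of GMNN control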.
The whole screen tested about 59,000 reagents; this is a random part of them. About 1,550 of them (2.6%) were called active. 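G2 share is only a proxy for re-replication; each gene was hit by three separate siRNAs, and active genes were retested.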 Reagents against one gene are numbered here. Further read-outs or replicates are left out here. Not stated in the record: the amount of reagent.

The opening 2 records, to show the layout:
ZNF440 #1
- G2 robust z-score: -0.226
- G2 cells, % of GMNN control: 1.37
- Outcome: inactive

ZNF440 #2
- G2 robust z-score: 0.853
- G2 cells, % of GMNN control: 8.97
- Outcome: inactive

Main list, repeating the preview:
ZNF440 #1
- G2 robust z-score: -0.226
- G2 cells, % of GMNN control: 1.37
- Outcome: inactive

ZNF440 #2
- G2 robust z-score: 0.853
- G2 cells, % of GMNN control: 8.97
- Outcome: inactive

ZNF440 #3
- G2 robust z-score: 2.21
- G2 cells, % of GMNN control: 18.5
- Outcome: inactive

MAGEB10 #1
- G2 robust z-score: 1.78
- G2 cells, % of GMNN control: 15.5
- Outcome: inactive

MAGEB10 #2
- G2 robust z-score: 0.303
- G2 cells, % of GMNN control: 5.1
- Outcome: inactive

MAGEB10 #3
- G2 robust z-score: 0.331
- G2 cells, % of GMNN control: 5.29
- Outcome: inactive

CYP19A1 #1
- G2 robust z-score: 1.31
- G2 cells, % of GMNN control: 12.2
- Outcome: inactive

CYP19A1 #2
- G2 robust z-score: -1.13
- G2 cells, % of GMNN control: -4.97
- Outcome: inactive

CYP19A1 #3
- G2 robust z-score: 1.67
- G2 cells, % of GMNN control: 14.7
- Outcome: inactive

COL25A1 #1
- G2 robust z-score: -0.812
- G2 cells, % of GMNN control: -2.74
- Outcome: inactive

COL25A1 #2
- G2 robust z-score: -0.17
- G2 cells, % of GMNN control: 1.77
- Outcome: inactive

COL25A1 #3
- G2 robust z-score: 1.15
- G2 cells, % of GMNN control: 11.1
- Outcome: inactive

SNUPN #1
- G2 robust z-score: 0.944
- G2 cells, % of GMNN control: 9.61
- Outcome: inactive

SNUPN #2
- G2 robust z-score: 0.0795
- G2 cells, % of GMNN control: 3.53
- Outcome: inactive

SNUPN #3
- G2 robust z-score: 0.697
- G2 cells, % of GMNN control: 7.87
- Outcome: inactive

ANKRD30A #1
- G2 robust z-score: -0.0271
- G2 cells, % of GMNN control: 2.78
- Outcome: inactive

ANKRD30A #2
- G2 robust z-score: 1.27
- G2 cells, % of GMNN control: 11.9
- Outcome: inactive

ANKRD30A #3
- G2 robust z-score: -0.362
- G2 cells, % of GMNN control: 0.422
- Outcome: inactive
